# Reference: PubChem BioAssay (EPA / NIEHS)
# Sequences of proteins named here, by UniProt entry; tags and fusion partners are left off. A change or cut given only in a name is not applied to a line headed by its entry.
# UniProt P42575: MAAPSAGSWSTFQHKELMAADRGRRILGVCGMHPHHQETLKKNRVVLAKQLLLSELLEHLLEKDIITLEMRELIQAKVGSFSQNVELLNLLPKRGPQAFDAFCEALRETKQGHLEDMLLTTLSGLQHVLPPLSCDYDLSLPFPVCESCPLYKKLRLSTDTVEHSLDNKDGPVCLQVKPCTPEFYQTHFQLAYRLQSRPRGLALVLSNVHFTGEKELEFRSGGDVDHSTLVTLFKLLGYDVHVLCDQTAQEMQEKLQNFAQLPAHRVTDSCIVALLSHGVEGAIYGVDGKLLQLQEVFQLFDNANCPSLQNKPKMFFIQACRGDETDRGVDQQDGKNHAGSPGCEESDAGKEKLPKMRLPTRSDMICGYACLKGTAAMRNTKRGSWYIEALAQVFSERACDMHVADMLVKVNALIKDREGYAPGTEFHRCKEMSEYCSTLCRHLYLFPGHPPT
# UniProt Q9UBN7: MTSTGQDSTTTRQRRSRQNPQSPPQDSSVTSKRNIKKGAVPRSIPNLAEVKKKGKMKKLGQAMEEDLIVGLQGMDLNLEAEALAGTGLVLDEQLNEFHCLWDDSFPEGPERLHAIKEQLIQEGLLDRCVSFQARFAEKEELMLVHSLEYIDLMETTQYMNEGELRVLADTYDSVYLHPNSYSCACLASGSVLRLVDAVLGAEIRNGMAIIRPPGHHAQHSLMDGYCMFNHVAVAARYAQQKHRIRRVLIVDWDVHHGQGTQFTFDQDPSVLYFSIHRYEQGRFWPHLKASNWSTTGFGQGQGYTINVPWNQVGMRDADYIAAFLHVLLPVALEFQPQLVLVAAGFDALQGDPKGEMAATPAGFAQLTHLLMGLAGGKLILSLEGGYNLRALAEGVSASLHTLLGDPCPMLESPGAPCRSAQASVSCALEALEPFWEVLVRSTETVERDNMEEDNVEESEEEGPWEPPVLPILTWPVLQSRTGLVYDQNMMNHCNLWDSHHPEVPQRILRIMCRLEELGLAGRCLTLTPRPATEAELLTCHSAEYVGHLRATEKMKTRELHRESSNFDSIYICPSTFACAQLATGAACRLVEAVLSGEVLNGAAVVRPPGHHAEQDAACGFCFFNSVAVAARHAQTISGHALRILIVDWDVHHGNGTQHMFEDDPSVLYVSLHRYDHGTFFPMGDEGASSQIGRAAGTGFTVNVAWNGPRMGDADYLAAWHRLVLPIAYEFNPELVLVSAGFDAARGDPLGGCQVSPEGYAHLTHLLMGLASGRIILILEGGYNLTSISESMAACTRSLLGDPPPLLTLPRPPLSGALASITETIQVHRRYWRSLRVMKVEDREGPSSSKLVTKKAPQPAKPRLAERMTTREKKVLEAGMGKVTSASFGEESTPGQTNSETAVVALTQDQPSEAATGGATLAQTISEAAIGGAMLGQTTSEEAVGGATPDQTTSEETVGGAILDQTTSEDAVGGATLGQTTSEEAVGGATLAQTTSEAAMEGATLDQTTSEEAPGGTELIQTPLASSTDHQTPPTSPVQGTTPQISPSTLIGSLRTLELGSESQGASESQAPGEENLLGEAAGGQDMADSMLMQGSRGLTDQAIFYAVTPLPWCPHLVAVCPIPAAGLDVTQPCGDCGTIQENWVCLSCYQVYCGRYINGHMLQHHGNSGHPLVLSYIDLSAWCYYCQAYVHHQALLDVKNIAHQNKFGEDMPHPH
# UniProt P11510: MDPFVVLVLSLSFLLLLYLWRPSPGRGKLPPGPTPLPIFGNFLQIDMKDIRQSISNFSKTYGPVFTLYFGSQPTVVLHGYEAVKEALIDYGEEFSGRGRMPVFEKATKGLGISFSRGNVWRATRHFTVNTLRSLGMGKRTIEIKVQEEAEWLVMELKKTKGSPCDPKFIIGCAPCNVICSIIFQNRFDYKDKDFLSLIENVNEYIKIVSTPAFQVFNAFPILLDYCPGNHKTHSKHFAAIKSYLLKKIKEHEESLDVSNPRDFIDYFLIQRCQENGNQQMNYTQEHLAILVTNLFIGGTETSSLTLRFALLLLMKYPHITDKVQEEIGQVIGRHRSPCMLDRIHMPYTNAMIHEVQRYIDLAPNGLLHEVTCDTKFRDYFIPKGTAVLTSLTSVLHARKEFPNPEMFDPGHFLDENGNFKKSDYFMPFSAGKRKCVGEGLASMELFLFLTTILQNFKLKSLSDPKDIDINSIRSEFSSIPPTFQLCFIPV
# UniProt P11362, whole entry, looked up: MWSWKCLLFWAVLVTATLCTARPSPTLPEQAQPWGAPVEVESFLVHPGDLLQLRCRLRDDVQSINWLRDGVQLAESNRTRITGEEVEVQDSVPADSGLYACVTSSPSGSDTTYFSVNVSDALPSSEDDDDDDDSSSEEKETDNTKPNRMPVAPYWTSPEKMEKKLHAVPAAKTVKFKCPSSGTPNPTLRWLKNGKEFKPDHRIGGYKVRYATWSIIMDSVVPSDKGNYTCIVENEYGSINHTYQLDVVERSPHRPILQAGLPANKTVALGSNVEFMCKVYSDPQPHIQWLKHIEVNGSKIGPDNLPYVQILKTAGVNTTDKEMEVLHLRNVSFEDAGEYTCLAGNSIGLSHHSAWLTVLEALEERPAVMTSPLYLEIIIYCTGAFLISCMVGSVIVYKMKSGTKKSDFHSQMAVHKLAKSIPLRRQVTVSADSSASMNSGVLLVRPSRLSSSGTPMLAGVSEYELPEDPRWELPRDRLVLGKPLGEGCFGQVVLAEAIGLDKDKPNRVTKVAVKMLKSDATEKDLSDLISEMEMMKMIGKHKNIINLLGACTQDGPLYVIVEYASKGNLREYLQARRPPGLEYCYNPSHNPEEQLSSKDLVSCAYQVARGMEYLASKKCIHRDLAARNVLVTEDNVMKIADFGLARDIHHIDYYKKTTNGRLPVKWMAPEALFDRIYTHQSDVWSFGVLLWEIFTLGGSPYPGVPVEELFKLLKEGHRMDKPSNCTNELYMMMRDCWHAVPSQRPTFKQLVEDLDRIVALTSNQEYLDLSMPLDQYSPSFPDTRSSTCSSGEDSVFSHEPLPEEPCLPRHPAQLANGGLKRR
# UniProt P22303: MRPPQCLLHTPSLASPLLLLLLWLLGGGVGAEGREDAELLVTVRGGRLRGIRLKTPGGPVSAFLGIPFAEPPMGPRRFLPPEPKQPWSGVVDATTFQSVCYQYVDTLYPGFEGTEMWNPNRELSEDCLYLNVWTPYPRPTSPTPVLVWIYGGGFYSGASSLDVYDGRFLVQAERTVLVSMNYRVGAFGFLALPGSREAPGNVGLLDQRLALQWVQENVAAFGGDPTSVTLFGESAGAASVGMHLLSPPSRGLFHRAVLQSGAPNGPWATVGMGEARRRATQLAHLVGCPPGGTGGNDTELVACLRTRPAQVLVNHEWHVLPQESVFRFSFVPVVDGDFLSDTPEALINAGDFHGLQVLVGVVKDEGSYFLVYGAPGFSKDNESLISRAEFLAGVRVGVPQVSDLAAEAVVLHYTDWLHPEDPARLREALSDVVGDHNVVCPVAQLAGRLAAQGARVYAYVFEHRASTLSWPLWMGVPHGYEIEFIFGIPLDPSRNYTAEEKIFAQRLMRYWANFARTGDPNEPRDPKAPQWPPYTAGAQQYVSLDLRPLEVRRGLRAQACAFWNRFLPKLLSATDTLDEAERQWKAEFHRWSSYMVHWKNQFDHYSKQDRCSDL
# UniProt Q9HCS2: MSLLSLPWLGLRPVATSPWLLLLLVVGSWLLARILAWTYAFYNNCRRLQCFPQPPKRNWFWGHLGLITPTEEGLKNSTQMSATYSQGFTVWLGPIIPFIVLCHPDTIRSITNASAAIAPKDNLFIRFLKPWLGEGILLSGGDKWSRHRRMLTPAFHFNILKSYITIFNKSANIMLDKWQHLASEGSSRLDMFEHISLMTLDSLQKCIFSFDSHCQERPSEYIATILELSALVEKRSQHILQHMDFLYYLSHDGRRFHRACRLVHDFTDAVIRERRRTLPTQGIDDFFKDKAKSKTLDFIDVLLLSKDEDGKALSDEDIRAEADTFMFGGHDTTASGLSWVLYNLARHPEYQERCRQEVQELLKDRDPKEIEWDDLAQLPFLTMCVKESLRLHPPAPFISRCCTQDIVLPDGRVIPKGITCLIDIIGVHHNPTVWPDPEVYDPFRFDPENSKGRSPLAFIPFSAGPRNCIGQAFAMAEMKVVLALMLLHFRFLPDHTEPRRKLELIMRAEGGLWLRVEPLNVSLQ
# UniProt P35353: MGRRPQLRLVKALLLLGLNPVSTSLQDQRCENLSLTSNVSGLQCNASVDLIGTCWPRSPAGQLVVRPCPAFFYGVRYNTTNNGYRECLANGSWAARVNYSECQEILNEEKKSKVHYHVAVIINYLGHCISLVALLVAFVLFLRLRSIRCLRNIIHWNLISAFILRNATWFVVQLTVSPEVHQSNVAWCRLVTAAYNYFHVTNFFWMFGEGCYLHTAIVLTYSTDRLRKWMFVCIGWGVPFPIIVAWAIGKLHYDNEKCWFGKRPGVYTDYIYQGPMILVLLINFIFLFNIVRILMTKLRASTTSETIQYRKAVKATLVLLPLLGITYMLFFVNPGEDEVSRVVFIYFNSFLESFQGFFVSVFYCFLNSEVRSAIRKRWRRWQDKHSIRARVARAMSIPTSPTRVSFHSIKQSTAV
# UniProt P08581: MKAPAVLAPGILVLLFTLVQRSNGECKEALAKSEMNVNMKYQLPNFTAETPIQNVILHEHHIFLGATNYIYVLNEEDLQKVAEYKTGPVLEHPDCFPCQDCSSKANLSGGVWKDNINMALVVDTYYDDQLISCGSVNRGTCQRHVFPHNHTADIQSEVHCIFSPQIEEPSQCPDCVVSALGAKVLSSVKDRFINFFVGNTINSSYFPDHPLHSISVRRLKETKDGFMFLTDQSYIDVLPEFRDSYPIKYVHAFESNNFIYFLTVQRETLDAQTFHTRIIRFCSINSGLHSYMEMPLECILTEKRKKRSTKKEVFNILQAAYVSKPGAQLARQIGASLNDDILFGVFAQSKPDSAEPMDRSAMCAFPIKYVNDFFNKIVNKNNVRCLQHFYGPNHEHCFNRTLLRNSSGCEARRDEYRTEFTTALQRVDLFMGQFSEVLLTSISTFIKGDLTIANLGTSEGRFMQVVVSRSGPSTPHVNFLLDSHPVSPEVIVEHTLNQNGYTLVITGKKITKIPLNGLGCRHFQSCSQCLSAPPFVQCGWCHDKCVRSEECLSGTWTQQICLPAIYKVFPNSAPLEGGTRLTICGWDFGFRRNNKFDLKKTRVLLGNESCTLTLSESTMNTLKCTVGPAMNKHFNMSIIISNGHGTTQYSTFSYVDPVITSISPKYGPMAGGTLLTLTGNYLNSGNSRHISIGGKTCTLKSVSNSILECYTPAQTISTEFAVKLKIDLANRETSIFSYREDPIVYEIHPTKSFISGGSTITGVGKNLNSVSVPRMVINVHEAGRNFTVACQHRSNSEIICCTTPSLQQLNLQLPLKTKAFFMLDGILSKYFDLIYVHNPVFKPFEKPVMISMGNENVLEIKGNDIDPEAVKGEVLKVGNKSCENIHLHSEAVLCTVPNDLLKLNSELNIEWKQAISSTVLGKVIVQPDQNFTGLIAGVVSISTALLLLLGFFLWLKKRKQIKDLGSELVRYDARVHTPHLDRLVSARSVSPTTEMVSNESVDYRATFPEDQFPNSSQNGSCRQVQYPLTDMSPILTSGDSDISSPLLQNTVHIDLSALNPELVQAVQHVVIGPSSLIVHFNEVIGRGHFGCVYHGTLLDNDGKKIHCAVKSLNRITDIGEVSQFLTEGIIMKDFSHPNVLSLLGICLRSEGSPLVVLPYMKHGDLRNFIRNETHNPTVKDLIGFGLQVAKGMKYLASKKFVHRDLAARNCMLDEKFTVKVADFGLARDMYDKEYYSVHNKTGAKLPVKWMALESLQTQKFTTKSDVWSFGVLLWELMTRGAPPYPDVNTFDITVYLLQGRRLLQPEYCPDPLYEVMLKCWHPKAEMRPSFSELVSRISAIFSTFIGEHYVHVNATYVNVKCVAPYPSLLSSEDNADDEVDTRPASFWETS
# UniProt P60484: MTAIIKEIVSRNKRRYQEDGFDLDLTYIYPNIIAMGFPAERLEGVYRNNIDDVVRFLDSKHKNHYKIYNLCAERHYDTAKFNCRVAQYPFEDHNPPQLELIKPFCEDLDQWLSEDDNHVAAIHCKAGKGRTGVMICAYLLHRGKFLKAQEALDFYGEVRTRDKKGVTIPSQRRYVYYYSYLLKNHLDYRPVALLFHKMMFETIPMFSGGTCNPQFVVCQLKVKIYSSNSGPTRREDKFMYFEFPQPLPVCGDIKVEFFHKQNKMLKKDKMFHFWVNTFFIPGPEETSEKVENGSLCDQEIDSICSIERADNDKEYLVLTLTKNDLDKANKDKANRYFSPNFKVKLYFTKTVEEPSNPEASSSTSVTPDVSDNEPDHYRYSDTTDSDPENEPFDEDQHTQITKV
# This list was built around the results that the source calls inconclusive (neither active nor inactive); the mix of calls is not that of the screen. For some of these results: Potencies of inconclusive entries are doubtful fits and often do not repeat. Active and inactive are the calls of the source. How the source made its calls: active means hit-call score of the fitted dose curve at least 0.9, where 1 is the maximum; inconclusive means response in the unintended direction; inactive means score below 0.9.
# Experiments:
# [1] = biological target: human AMP-activated Protein Kinase, alpha 1 (AMPKa1), PRKAA1 (gene 5562) (UniProt Q13131); experiment: NVS_ENZ_hAMPKa1: NovaScreen (NVS) Enzymatic Assay for human AMP-activated Protein Kinase, alpha 1 (AMPKa1) (AID 2283130)
# In short: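 Recombinant human AMPKα1 activity was measured cell-free by fluorescent substrate conversion with electrophoretic mobility-shift separation, 1 h after dosing. Duplicate single-point screening was at 25 uM; actives (≥30% inhibition) were retested in concentration-response up to 50 uM.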
# [2] = biological target: Caspase-1 (Homo sapiens) (UniProt P29466); experiment: NVS_ENZ_hCASP1: NovaScreen (NVS) Enzymatic Assay for human Caspase 1 (CASP1) (AID 2283132)
# In short: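 Cell-free enzymatic assay with E. coli-expressed recombinant protein; fluorescence intensity read 1 hour after dosing. Single-concentration duplicate screen at 25 uM, then concentration-response up to 50 uM; activity fitted relative to DMSO, loss of signal meaning inhibition.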
# [3] = biological target: human Caspase 2 (CASP2), CASP2 (gene 835) (UniProt P42575); experiment: NVS_ENZ_hCASP2: NovaScreen (NVS) Enzymatic Assay for human Caspase 2 (CASP2) (AID 2283135)
# In short: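 E. coli-expressed enzyme in a cell-free protease assay, fluorescence read 1 h after dosing. Compounds at 25 uM in duplicate, with concentration-response up to 50 uM for hits; loss of signal against DMSO baseline.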
# [4] = biological target: Protein deacetylase HDAC6 (Homo sapiens) (UniProt Q9UBN7); experiment: NVS_ENZ_hHDAC6: NovaScreen (NVS) Enzymatic Assay for human Histone Deacetylase 6 (HDAC6) (AID 2283164)
# In short: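 Recombinant human HDAC6 with fluorescent substrate, 1 h; product separated from substrate by electrophoretic mobility shift. Primary screen in duplicate at 25 uM; actives retested singly in concentration-response up to 50 uM, fitted relative to DMSO.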
# [5] = biological target: rat CYP2C12, Cyp2c12 (gene 25011) (UniProt P11510); experiment: NVS_ADME_rCYP2C12: NovaScreen (NVS) CYP450-related Enzyme Activity (ADME) Assay for rat CYP2C12 (AID 2283119)
# In short: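 Cell-free recombinant rat CYP2C12 activity read by fluorescence 0.5 h after dosing; loss of signal versus acetonitrile control. Primary screen in duplicate at 10 uM; actives then run in concentration-response format.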
# [6] = biological target: human Fibroblast Growth Factor Receptor 1 (FGFR1), FGFR1 (gene 2260) (UniProt P11362); experiment: NVS_ENZ_hFGFR1: NovaScreen (NVS) Enzymatic Assay for human Fibroblast Growth Factor Receptor 1 (FGFR1) (AID 2283159);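 further: hits lower the signal so potencies describe inhibitors of the kinase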
# In short: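 Cell-free recombinant kinase with fluorescent substrate, product separated by electrophoretic mobility shift; read 1 hour after dosing, loss of signal relative to DMSO. Initial screen in duplicate at 25 uM, actives followed in concentration series.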
# [7] = biological target: PPP2CA (gene 5515) (UniProt P67775); experiment: NVS_ENZ_hPPP2CA: NovaScreen (NVS) Enzymatic Assay for human Protein Phosphatase 2 Aatalytic subunit Alpha (PPP2CA) (AID 2283199)
# In short: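 Recombinant human PPP2CA with fluorescent substrate; product separated from substrate by electrophoretic mobility shift, read 1.33 h after dosing. Duplicate single-point at 25 uM, then singleton concentration-response up to 50 uM; loss of signal versus DMSO.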
# [8] = biological target: human Acetylcholinesterase (AChE), ACHE (gene 43) (UniProt P22303); experiment: NVS_ENZ_hAChE: NovaScreen (NVS) Enzymatic Assay for human Acetylcholinesterase (AChE) (AID 2283129)
# In short: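 Cell-free colorimetric enzyme-activity assay; compounds read 0.33 hour after dosing, loss of signal vs DMSO baseline. Primary screen in duplicate at 25 uM single concentration, with active compounds retested in concentration series.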
# [9] = biological target: human CYP4F12, CYP4F12 (gene 66002) (UniProt Q9HCS2); experiment: NVS_ADME_hCYP4F12: NovaScreen (NVS) CYP450-related Enzyme Activity (ADME) Assay for human CYP4F12 (AID 2283111)
# In short: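 Cell-free fluorescence assay of recombinant human CYP4F12 activity on a specific substrate, read 0.5 h after dosing. Primary screen in duplicate at 10 uM, then concentration series for actives; loss of signal fitted against acetonitrile negative control.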
# [10] = test system: rat Monoamine Oxidase, MAO-A, Peripheral (MAOAP), gene 29253; experiment: NVS_ENZ_rMAOAP: NovaScreen (NVS) Enzymatic Assay for rat Monoamine Oxidase, MAO-A, Peripheral (MAOAP) (AID 2283237)
# In short: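 Rat liver mitochondrial membranes served as the MAO-A source, with enzyme activity measured by radiometric scintillation counting 1.17 hours after dosing. Loss of signal was fitted against DMSO; primary screen used 25 uM in duplicate, follow-up used concentration series.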
# [11] = biological target: rat Monoamine Oxidase, MAO-B, Central (MAOBC), Maob (gene 25750) (UniProt P19643); experiment: NVS_ENZ_rMAOBC: NovaScreen (NVS) Enzymatic Assay for rat Monoamine Oxidase, MAO-B, Central (MAOBC) (AID 2283238)
# In short: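 Compounds were first tested in duplicate at 25 uM against MAO-B from rat brain tissue; those passing the inhibition threshold were retested in concentration series up to 50 uM. Radiodetection by scintillation counting at 1.17 h, analysed against DMSO baseline.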
# [12] = test system: rat CYP2B1, gene 24300; experiment: NVS_ADME_rCYP2B1: NovaScreen (NVS) CYP450-related Enzyme Activity (ADME) Assay for rat CYP2B1 (AID 2283117)
# In short: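 Recombinant rat CYP2B1 with fluorogenic substrate, read at 0.75 h. Primary screen in duplicate at 10 uM; compounds meeting threshold (e.g., 30% inhibition) re-run in concentration-response up to 20 uM. Fitted against acetonitrile control.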
# [13] = biological target: rat Corticotropin Releasing Factor Receptor (CRF), Crhr1 (gene 58959) (UniProt P35353); experiment: NVS_GPCR_rCRF: NovaScreen (NVS) G Protein-Coupled Receptor Assay for rat Corticotropin Releasing Factor Receptor (CRF) (AID 2283300)
# In short: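 Rat cortical membranes used as receptor source in a radioligand competitive displacement binding assay; scintillation read 2 h after dosing. Primary screen run in duplicate at 25 uM; loss of signal versus DMSO baseline indicates binding.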
# [14] = biological target: rat Neurotensin Receptor (NTS), Ntsr1 (gene 366274) (UniProt P20789); experiment: NVS_GPCR_rNTS: NovaScreen (NVS) G Protein-Coupled Receptor Assay for rat Neurotensin Receptor (NTS) (AID 2283308)
# In short: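 Rat forebrain membranes; radioligand binding with competitive displacement, read by filter-based scintillation counting 1 h after dosing. Primary screen in duplicate at 25 uM; actives (e.g., 30% inhibition) rerun in concentration-response up to 50 uM, loss-of-signal versus DMSO.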
# [15] = biological target: human Epidermal Growth Factor Receptor (EGFR), EGFR (gene 1956) (UniProt P00533); experiment: NVS_ENZ_hEGFR: NovaScreen (NVS) Enzymatic Assay for human Epidermal Growth Factor Receptor (EGFR) (AID 2283151)
# In short: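 Cell-free kinase assay, fluorescence plus electrophoretic mobility shift separating substrate and product, read 1 hour after dosing; loss of signal vs DMSO. Duplicate screen at 25 uM, then concentration-response to 50 uM.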
# [16] = biological target: human MET Proto-Oncogene, Receptor Tyrosine Kinase (MET), MET (gene 4233) (UniProt P08581); experiment: NVS_ENZ_hMet: NovaScreen (NVS) Enzymatic Assay for human MET Proto-Oncogene, Receptor Tyrosine Kinase (MET) (AID 2283180)
# In short: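 Cell-free MET kinase assay using recombinant protein and fluorescent substrate, with mobility-shift separation; read 1 h after dosing. Primary duplicate at 25 uM; actives in singleton concentration-response to 50 uM maximum. Signal loss versus DMSO.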
# [17] = biological target: human Phosphatase and Tensin Homolog (PTEN), PTEN (gene 5728) (UniProt P60484); experiment: NVS_ENZ_hPTEN: NovaScreen (NVS) Enzymatic Assay for human Phosphatase and Tensin Homolog (PTEN) (AID 2283203)
# In short: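 Cell-free recombinant human PTEN with fluorescent substrate; product separated by electrophoretic mobility shift and read by fluorescence 1 h after dosing. Primary screen in duplicate at 25 uM, actives followed in concentration series versus DMSO.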
# [18] = biological target: human Ephrin type-A Receptor 2 (EphA2), EPHA2 (gene 1969) (UniProt P29317); experiment: NVS_ENZ_hEphA2: NovaScreen (NVS) Enzymatic Assay for human Ephrin type-A Receptor 2 (EphA2) (AID 2283155)
# In short: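 Cell-free recombinant EphA2 kinase with specific substrate, 1 h, fluorescence with electrophoretic mobility-shift separation of substrate and product. Primary screen at 25 uM in duplicate; hits retested in singleton concentration-response up to 50 uM, referenced to DMSO.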
smiles,measurement,setting,value
CCCCCCCCCCCCc1ccccc1,outcome,[1],inactive
O=C1c2c(O)cccc2Cc2cccc(O)c21,AC50,[2],active: 5.01 µM
same,AC50,[3],active: 1.03 µM
same,AC50,[4],inconclusive: 0.273 µM
COC(=O)c1ccccc1C(=O)O,AC50,[5],inconclusive: 10 µM
O=C1NC(=O)C(c2ccccc2)(c2ccccc2)N1,AC50,[1],inconclusive: 0.695 µM
same,AC50,[6],inconclusive: 25 µM
same,AC50,[7],inconclusive: 25 µM
O=C(c1ccc(OCCN2CCCCC2)cc1)c1c(-c2ccc(O)cc2)sc2cc(O)ccc12,AC50,[8],active: 0.0103 µM
same,AC50,[1],active: 18.9 µM
CCOC(=O)COc1cc(-n2ncc(C(F)(F)F)c(C)c2=O)c(F)cc1Cl,AC50,[9],inconclusive: 0.0682 µM
same,outcome,[10],inactive
O=C(O)c1ccccc1C(c1ccc(O)cc1)c1ccc(O)cc1,outcome,[1],inactive
same,outcome,[11],inactive
CCNc1nc(N)nc(Cl)n1,AC50,[12],inconclusive: 10 µM
same,outcome,[13],inactive
same,AC50,[14],inconclusive: 0.186 µM
O=C(O)c1cc(N=Nc2ccc(S(=O)(=O)Nc3ccccn3)cc2)ccc1O,AC50,[1],inconclusive: 0.0685 µM
same,AC50,[3],inconclusive: 44.3 µM
same,AC50,[15],active: 3.95 µM
same,outcome,[16],inactive
same,AC50,[17],inconclusive: 25 µM
CCCCCCCCCCCCCC[P+](CCCC)(CCCC)CCCC,AC50,[12],active: 6.5 µM
same,AC50,[18],active: 9.76 µM
same,AC50,[17],inconclusive: 25 µM

# Part of the list above, reformatted:
smiles | measurement | setting | value
O=C(O)c1cc(N=Nc2ccc(S(=O)(=O)Nc3ccccn3)cc2)ccc1O | AC50 | [1] | inconclusive: 0.0685 µM
same | AC50 | [3] | inconclusive: 44.3 µM
